We go through five molecules from article PMC12237041.

What all share (experiment): SEC; calibrated Superdex 200 10/300 GL, 50 mM Tris–HCl (pH 8.0), 150 mM sodium chloride; β-ME during lysis and IMAC or a reducing agent during SEC; each IgAse construct alone; both purified
Background: Size exclusion chromatography separates by hydrodynamic size, large species first.

For experiment [1], the target named is IgAse1 (Thomasclavelia ramosa) (UniProt Q9AES2).
Experiment [2] deals with IgAse1–3 + E540A (Thomasclavelia ramosa) (UniProt Q9AES2).
Experiment [3] addresses IgAse1–4 + E540A (Thomasclavelia ramosa) (UniProt Q9AES2).
The target in experiment [4] is IgAse2–4 + E540A (Thomasclavelia ramosa) (UniProt Q9AES2).
In experiment [5] the target is IgAse1–7 + E540A (Thomasclavelia ramosa) (UniProt Q9AES2).

These are yes or no findings as the source states them, for the method shown.

For “IgAse1 (from UniProt Q9AES2 31-319) (domain or fragment)”, the binding result in experiment [1] is recorded as “no binding”.

For the molecule “IgAse1–3 + E540A (from UniProt Q9AES2 31-807) (domain or fragment)”, in experiment [2], the binding entry was “no binding”.

Turning to “IgAse1–4 + E540A (from UniProt Q9AES2 31-876) (domain or fragment)”, the binding entry in experiment [3] is reported as “no binding”.

In the case of “IgAse2–4 + E540A (from UniProt Q9AES2 328-876) (domain or fragment)”, the binding result in experiment [4] is “no binding”.

B1: IgAse1–7 + E540A (domain or fragment, UniProt Q9AES2 31-1166)
chain: MASKPDIKVGDYVKMGVYNNASILWRCVSIDNNGPLMLADKIVDTLAYDAKTNDNSNSKSHSRSYKRDDYGSNYWKDSNMRSWLNSTAAEGKVDWLCGNPPKDGYVSGVGAYNEKAGFLNAFSKSEIAAMKTVTQRSLVSHPEYNKGIVDGDANSDLLYYTDISEAVANYDSSYFETTTEKVFLLDVKQANAVWKNLKGYYVAYNNDGMAWPYWLRTPVTDCNHDMRYISSSGQVGRYAPWYSDLGVRPAFYLDSEYFVTTSGSGSQSSPYIGSAPNKQEDDYTISEPAEDANPDWNVSTEQSIQLTLGPWYSNDGKYSNPTIPVYTIQKTRSDTENMVVVVCGEGYTKSQQGKFINDVKRLWQDAMKYEPYRSYADRFNVYALCTASESTFDNGGSTFFDVIVDKYNSPVISNNLHGSQWKNHIFERCIGPEFIEKIHDAHIKKKCDPNTIPSGSEYEPYYYVHDYIAQFAMVVNTKSDFGGAYNNREYGFHYFISPSDSYRASKTFAHAFGHGLLGLGDEYSNGYLLDDKELKSLNLSSVEDPEKIKWRQLLGFRNTYTCRNAYGSKMLVSSYECIMRDTNYQFCEVCRLQGFKRMSQLVKDVDLYVATPEVKEYTGAYSKPSDFTDLETSSYYNYTYNRNDRLLSGNSKSRFNTNMNGKKIELRTVIQNISDKNARQLKFKMWIKHSDGSVATDSSGNPLQTVQTFDIPVWNDKANFWPLGALDHIKSDFNSGLKSCSLIYQIPSDAQLKSGDTVAFQVLDENGNVLADDNTETQRYTTVSIQYKFEDGSEIPNTAGGTFTVPYGTKLDLTPAKTLYDYEFIKVDGLNKPIVSDGTVVTYYYKNKNEEHTHNLTLVAAKAATCTTAGNSAYYTCDGCDKWFADATGSVEITDKTSVKIPAPGHTAGTEWKSDDTNHWHECTVAGCGVIIESTKSAHTAGEWIVDTPATATTAGTKHKECTVCHRVLETQPIPSTGTELKIIAGDNQIYNKASGSDVTITCNGDFAKFTGIKVDGSVVDSSNYTAVSGSTVLTLKASYLGTLTDGSHTITFVYTDGEANANLTVRTAGSGHIHDYGTEWKSNADNHWHECNCGDKKDEAAHSFKWVVDKEATATKKGSKHEECKICGYKRSAVEI
Regarding B1, the binding result in experiment [5] is “no binding”.
